PubChem BioAssay AID1159584, Peter MacCallum Cancer Centre, 2016
Assay: 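Genes whose loss is lethal only together with E-cadherin loss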 (primary screen). Cell system: human MCF10A breast epithelial cells, parental and CDH1-null. Knock-down reagent: siRNA against human genes. Measurement: 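Cell viability by CellTiter-Glo ATP luminescence, each line scaled to the mean of mock wells across plates, then CDH1-null over parental ratio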. Scale: CDH1-null / parental viability ratio: higher = CDH1-null cells survive relatively better than parental; CDH1-null viability vs mock: higher = more viable CDH1-null cells. Units: CDH1-null viability vs mock in fraction of mock.
This is a random part of about 18,000 reagents. Further read-outs or replicates are left out here. The record does not give: the amount of reagent, the time to read-out.

CCDC136 (GeneID 64753)
- CDH1-null / parental viability ratio: 1.14
- CDH1-null viability vs mock: 0.64

FER1L6 (GeneID 654463)
- CDH1-null / parental viability ratio: 1.1
- CDH1-null viability vs mock: 0.91

MSMO1 (GeneID 6307)
- CDH1-null / parental viability ratio: 1.11
- CDH1-null viability vs mock: 1.04

SIVA1 (GeneID 10572)
- CDH1-null / parental viability ratio: 1.33
- CDH1-null viability vs mock: 1.09

SP6 (GeneID 80320)
- CDH1-null / parental viability ratio: 1.13
- CDH1-null viability vs mock: 0.6

PRPS1L1 (GeneID 221823)
- CDH1-null / parental viability ratio: 0.95
- CDH1-null viability vs mock: 0.92

SLC22A5 (GeneID 6584)
- CDH1-null / parental viability ratio: 1.01
- CDH1-null viability vs mock: 0.97

TEC (GeneID 7006)
- CDH1-null / parental viability ratio: 0.95
- CDH1-null viability vs mock: 0.82

MAGI3 (GeneID 260425)
- CDH1-null / parental viability ratio: 0.9
- CDH1-null viability vs mock: 0.86

SH2B1 (GeneID 25970)
- CDH1-null / parental viability ratio: 0.95
- CDH1-null viability vs mock: 0.37

PTF1A (GeneID 256297)
- CDH1-null / parental viability ratio: 1
- CDH1-null viability vs mock: 0.83

CRYGC (GeneID 1420)
- CDH1-null / parental viability ratio: 1.02
- CDH1-null viability vs mock: 0.99

SGSM2 (GeneID 9905)
- CDH1-null / parental viability ratio: 0.84
- CDH1-null viability vs mock: 0.92

NWD1 (GeneID 284434)
- CDH1-null / parental viability ratio: 0.89
- CDH1-null viability vs mock: 0.48

SNX2 (GeneID 6643)
- CDH1-null / parental viability ratio: 0.93
- CDH1-null viability vs mock: 0.8

RAC2 (GeneID 5880)
- CDH1-null / parental viability ratio: 0.79
- CDH1-null viability vs mock: 0.52

FAM110C (GeneID 642273)
- CDH1-null / parental viability ratio: 1.4
- CDH1-null viability vs mock: 0.77

TRIM2 (GeneID 23321)
- CDH1-null / parental viability ratio: 0.91
- CDH1-null viability vs mock: 0.9

ST6GALNAC3 (GeneID 256435)
- CDH1-null / parental viability ratio: 0.94
- CDH1-null viability vs mock: 0.92

RHD (GeneID 6007)
- CDH1-null / parental viability ratio: 0.92
- CDH1-null viability vs mock: 0.93

CARM1 (GeneID 10498)
- CDH1-null / parental viability ratio: 1.07
- CDH1-null viability vs mock: 0.88

HDGFL3 (GeneID 50810)
- CDH1-null / parental viability ratio: 0.89
- CDH1-null viability vs mock: 0.73

GSTT2B (GeneID 653689)
- CDH1-null / parental viability ratio: 0.82
- CDH1-null viability vs mock: 0.72

CAV3 (GeneID 859)
- CDH1-null / parental viability ratio: 0.9
- CDH1-null viability vs mock: 0.76

SPANXC (GeneID 64663)
- CDH1-null / parental viability ratio: 1.36
- CDH1-null viability vs mock: 0.38

INSYN1 (GeneID 388135)
- CDH1-null / parental viability ratio: 1.29
- CDH1-null viability vs mock: 0.8

TRUB2 (GeneID 26995)
- CDH1-null / parental viability ratio: 1.15
- CDH1-null viability vs mock: 0.62

DPPA2 (GeneID 151871)
- CDH1-null / parental viability ratio: 1.22
- CDH1-null viability vs mock: 0.78

TMEM165 (GeneID 55858)
- CDH1-null / parental viability ratio: 1.21
- CDH1-null viability vs mock: 0.76

CACNA1G (GeneID 8913)
- CDH1-null / parental viability ratio: 1.36
- CDH1-null viability vs mock: 0.76

GFAP (GeneID 2670)
- CDH1-null / parental viability ratio: 0.95
- CDH1-null viability vs mock: 0.86

HMX2 (GeneID 3167)
- CDH1-null / parental viability ratio: 1.05
- CDH1-null viability vs mock: 0.92

SUCLG2 (GeneID 8801)
- CDH1-null / parental viability ratio: 0.67
- CDH1-null viability vs mock: 0.64

SLC36A4 (GeneID 120103)
- CDH1-null / parental viability ratio: 1.15
- CDH1-null viability vs mock: 1.02

DBNDD2 (GeneID 55861)
- CDH1-null / parental viability ratio: 1.2
- CDH1-null viability vs mock: 0.98

Part of the list above in another layout.
gene,CDH1-null / parental viability ratio,CDH1-null viability vs mock
SNX2 (GeneID 6643),0.93,0.8
RAC2 (GeneID 5880),0.79,0.52
FAM110C (GeneID 642273),1.4,0.77
TRIM2 (GeneID 23321),0.91,0.9
ST6GALNAC3 (GeneID 256435),0.94,0.92
RHD (GeneID 6007),0.92,0.93
